No constants are given. Whether binding was seen depends on the method and setting. In cells and extracts the contact can be indirect. Binding calls can cover weak binding; strength is not graded here.
Assays:
[1] = target: protein phosphatase one (PP1), rat liver nuclei (rat (endogenous in rat liver nuclei)); test: pull-down; synthetic peptide (0.1, 0.5, 2 mM in buffer A plus 300 mM NaCl, pH 7.5) incubated 30 min with PP1 complexes from rat liver nuclei held on microcystin-Sepharose; displacement of regulatory subunits read by western blot; more effective at higher ionic strength; only the binder purified
[2] = target: protein phosphatase one (PP1), rat liver nuclei (rat (endogenous in rat liver nuclei)); test: pull-down; rat liver nuclear extract incubated with microcystin-Sepharose 1 h at 4°C, washed with buffer A (25 mM Tris-HCl pH 7.5) plus 300 mM NaCl; PP1 held on the matrix; proteins eluted with peptide (0.1-2 mM), then 3 M NaSCN; western blot

binding [1] | binding [2] | Binder
binds | – | GKKRVRWADLE [ZAP peptide …]
– | binds | ZAP (ZAP3), YLPM-motif containing PP1 interactor, rat liver nuclei (protein, UniProt P0CB49 1-1376) MYPNWGRYGGSSHYPPPPVPPPPPPVALPEASPGPGYSSSTAPAAPSSSGFMSFREQHLAQLQQLQQMHQKQMQCVLQPHHLPPPPLPPPPVMPGGGYGDWQPPPPPMPPPPGPALSYQKQQQYKHQMIHHQRDGPPGLVPMELESPPESPPVPPGSYMPPSQSYMPPPQPPPSYYPPSSAQPYLPPAQPSPSKPQLPPPPPSIPSGNKTTIQQEPLETGAKNKNAEQKQAAPEPDPSTMTPQEQQQYWYRQHLLSLQQRTKVHLPGHKKGLVTAKDVPEPIKEEAPVPATSQIAEPLAAEEPPLPPPNEEMPPPLPPEEPQNNSSEMSEDPEEDARLKQLQAAAAHWQQHQQHRVGFQYQGIMQRHTQLQQILQQYQQVIQHSPHIQTMSLDVQLRHYEMQQQQFQRLYQEWEREFQLWEEQLHSYPHKDQLEEYEKQWKSWQGHMRATQTYLQEKVTSFQAVKNQYMGNMAMPPPFVPYSQMPPPLPTMPPPVLPPSLPPPVMPPALPSTIPPPGMPPPVMPPSLPTSVPPPGMPPSLSSAVLPPPSLSSAGPPPVLPPPSLSGAPPVLPLPPLSSATPPPGIPPPGVPQGMPPQLTAPVPPASSSQNSQVPEKPRQALLPTPVSFGSTPPSPYHPPPQSEQGNSKPLNKVFSSEQGLGESSSALSQSVIAAKDTPVKSGGLLADPPKGSFLEGPRGPREQKEQLQKLKDFGSEPQTADHLPPPDSRLQNTSRPGMYPPPGSYRPPPPMGKPPGSIVRPSAPPARSCVPMTRPPVPIPPPPPPPPPPPPPPPVIKPKTSSVKQERWDEDSFFGLWDTNDDQGLNSEFKRDTAAIPSAPVLPPPPVHPSIPPPGPMPMGMPPMSKPPPVQHTVDYGHGRDMPTNKVEQIPYGERITLRPDPLPERSAFDADHAGQRDRYDRDRDREPYFDRQSNMTDHRDFKRDRETHRDRDRVLDYERDRFDRERRPRDDRNQSYRDKKDHSSSRRGGFDRPSYDRKSDRPPYEGPPMFGGERRTYPEERMPLPAPSLGHQPPPVPRVEKKPESKNVDDILKPPGRESRPERIVVIMRGLPGSGKTHVAKLIRDKEVEFGGPAPRVLSLDDYFIAEVEKEEKDPDSGKKVKKKVMEYEYEADMEETYRTSMFKTFKKTLDDGFFPFIILDAINDRVRHFDQFWSAAKTKGFEVYLAEMSADNQTCGKRNIHGRKLKEINKMAEHWEAAPRHMMRLDIRSLLQDAAIEEVEMEDFDANIEDQKEEKKDAEEEESELGYIPKSKWEMDTSEAKLDKLDGLRTGTKRKRDWEAIASRMEDYLQLPDDYETRASEPGKKRVRWADLEEKKDADRKRAIGFVVGQTDWEKITDESGHLAERALNRTKYI
– | binds | p99 (PNUTS), rat liver nuclei (protein, UniProt O55000 1-872) MGSGPIDPKELLKGLDSFLTRDGEVKSVDGIAKIFSLMKEARKMVSRCTYLNIILQTRAPEVLVKFIDVGGYKLLNSWLTYSKTTNNIPLLQQILLTLQHLPLTVDHLKQNNTAKLVKQLSKSSEDEELRKLASVLVSDWMAVIRSQSSTQPAEKDKKKRKEEGKSRTTLPERPLTEVKAETRAEEAPEKKKEKPKSLRTTAPSHAKFRSTGLELDTPSLVPVKKNSSTVVVSDKYNLKPIPLKRQSATAAPGDAAPPAEKKYKPLNTTPNTTKEIKVKIIPPQPMEGLGFLDALNSAPVPGIKIKKKKKVLSPTAAKPSPFEGKTSTEPSTAKPSSPEPAAPAEPMDTDRPGTPVPAVEVPELMDAASSEPGALDAKPVESPGDPNQLTRKGRKRKTVTWPEEGKLREYFYFELDETERVNVNKIKDFGEAAKREILSDRHAFETARRLSHDNMEEKVPWVCPRPLVLPSPLVIPGSNSQERYIQAEREKGILQELFLNKESPHEPDPEPYEPIPPKLIPLDEECAMDETPYVETLEPGGSGGSPDGAGGSKLPPVLANLMGSMGAGKSPQGPGGGGINVQEILTSIMGSPNNHPSEELLKQPDYSDKLKQMLVPHGLLGPGPVANGFPPGGPGGPKGMQHFPPGPGGPMPGPHGGPGGPVGPRLLGPPPPSRGGDPFWDGPGDPMRGGPMRGGPGPGPGPYHRGRGGRGGNEPPPPPPFRGARGGRSGGGPPNGRGGPGGGGMVGGGGHRPHEGPGGSMGSGHRSHEGPGGSMGSGHRSHEGPGHGGPHGHRPHDVPSHRGHDHRGPPPHEHRGHDGHGGGGHRGHDGGHSHGGDMSNRPVCRHFMMKGNCRYENNCAFYHPGVNGPPLP
